Test results published in BindingDB's records for doi:10.1002/1098-2396(20001215)38:4 (University of North Texas, 2000).

The chains behind the UniProt entries cited, without tags or fusion partners.
UniProt P61169, whole entry: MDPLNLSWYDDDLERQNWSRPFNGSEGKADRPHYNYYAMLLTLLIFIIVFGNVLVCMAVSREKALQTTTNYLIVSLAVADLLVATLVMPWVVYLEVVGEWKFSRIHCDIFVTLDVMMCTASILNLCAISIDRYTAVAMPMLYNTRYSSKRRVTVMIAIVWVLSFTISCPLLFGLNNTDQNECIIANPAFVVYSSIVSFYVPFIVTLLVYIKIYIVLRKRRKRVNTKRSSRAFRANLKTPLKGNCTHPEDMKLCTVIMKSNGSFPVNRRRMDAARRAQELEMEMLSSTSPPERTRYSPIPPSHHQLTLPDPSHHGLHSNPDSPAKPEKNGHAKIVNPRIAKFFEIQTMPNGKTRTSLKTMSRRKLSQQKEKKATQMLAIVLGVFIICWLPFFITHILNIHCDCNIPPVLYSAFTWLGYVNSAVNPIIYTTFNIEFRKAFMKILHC

Target: D(2) dopamine receptor (Rattus norvegicus, UniProt P61169)

In the case of CC(C)NC[C@H](O)COc1cccc2ccccc12 [Propanolol,(+/-)], the Ki is reported as > 10 µM.
